Earlier results as cited in patent US20230365568A1.

Assays:
[1] = data from Alverez et al., 2020; cited from earlier work
[2] = data from Alverez et al., 2020; cited from earlier work; remark: listed apart in the source
[3] = data from Alverez et al., 2020; cited from earlier work; remark: listed apart in the source

Structure (SMILES): CCn1c(=O)c2cc(F)ccc2n2c(=S)[nH]nc12 [compound 63]
- t1/2 (min, RLM) [1]: >30 min
- Solub. [2]: >39 µg/mL

Structure (SMILES): O=c1c2cc(F)ccc2n2c(=S)[nH]nc2n1CCc1ccccc1
- t1/2 (min, RLM) [1]: >30 min
- PAMPA [3]: 77.0 ×10⁻⁶ cm/s

The match of structure and compound is tentative.
